Measured values taken from patent US20240350653A1 (JOINT STOCK COMPANY GENERIUM, published 2024).
Results are given in words; binding and its absence hold for the method and conditions named. Some results given as binding are weak or reduced against the parent protein; the word gives no strength. Each block holds one binder with its values, some of them ahead of it.

Sequences of proteins named here, by UniProt entry; tags and fusion partners are left off. A change or cut given only in a name is not applied to a line headed by its entry. A line that says so, or that is headed by a name, gives the form on record, which may keep a tag or linker.
Human Insulin Receptor protein fragment (Abcam cat #ab200510) (P06213, form named): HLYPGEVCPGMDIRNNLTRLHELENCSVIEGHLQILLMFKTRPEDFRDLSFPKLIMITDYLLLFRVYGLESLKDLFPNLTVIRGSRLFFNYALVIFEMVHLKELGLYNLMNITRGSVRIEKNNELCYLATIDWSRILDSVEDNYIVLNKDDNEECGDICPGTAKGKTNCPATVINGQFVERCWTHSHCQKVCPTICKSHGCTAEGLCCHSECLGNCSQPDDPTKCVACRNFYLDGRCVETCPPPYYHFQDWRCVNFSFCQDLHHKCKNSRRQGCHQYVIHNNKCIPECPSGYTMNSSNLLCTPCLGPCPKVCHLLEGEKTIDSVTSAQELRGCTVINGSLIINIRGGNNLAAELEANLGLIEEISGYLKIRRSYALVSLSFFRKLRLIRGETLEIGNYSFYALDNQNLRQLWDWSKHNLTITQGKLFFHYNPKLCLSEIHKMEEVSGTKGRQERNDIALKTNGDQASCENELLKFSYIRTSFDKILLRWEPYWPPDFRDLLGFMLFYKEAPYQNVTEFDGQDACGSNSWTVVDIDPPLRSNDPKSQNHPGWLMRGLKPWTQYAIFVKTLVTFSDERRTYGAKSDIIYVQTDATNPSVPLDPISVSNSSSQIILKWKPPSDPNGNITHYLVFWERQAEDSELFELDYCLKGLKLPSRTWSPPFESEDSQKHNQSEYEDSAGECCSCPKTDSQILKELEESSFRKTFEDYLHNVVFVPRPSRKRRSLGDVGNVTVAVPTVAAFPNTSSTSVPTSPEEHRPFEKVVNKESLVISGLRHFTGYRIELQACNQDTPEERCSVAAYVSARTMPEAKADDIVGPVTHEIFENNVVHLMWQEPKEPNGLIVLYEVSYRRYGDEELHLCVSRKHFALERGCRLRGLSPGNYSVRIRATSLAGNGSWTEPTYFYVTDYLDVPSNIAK

Biological target: Human Insulin Receptor protein fragment (Abcam cat #ab200510) (human) (UniProt P06213)
Assay: ELISA on human insulin receptor fragment

binding: binds
B1: HIR-FAB-IDS (SEQ ID NO: 11 and SEQ ID NO: 15) (Fab)
light: EIVLTQSPATLSLSPGERATLSCRASQDIGGNLYWYQQKPGQAPRLLIYATSSLDSGIPARFSGSGSGTDFTLTISSLEPEDFAVYYCLQYSSSPWTFGQGTRLEIKRTVAAPSVFIFPPSDEQLKSGTASVVCLLNNFYPREAKVQWKVDNALQSGNSQESVTEQDSKDSTYSLSSTLTLSKADYEKHKVYACEVTHQGLSSPVTKSFNRGEC
heavy: EVQLVESGGGLVQPGRSLRLSCAASGFTFNNYDIHWVRQAPGKGLEWVSWIYPGDGSTKYNEKFKGRFTISRDNAKKSLYLQMNSLRAEDTALYYCAKEWAYWGQGTTVTVSSASTKGPSVFPLAPGSSKSTSGTAALGCLVKDYFPEPVTVSWNSGALTSGVHTFPAVLQSSGLYSLSSVVTVPSSSLGTQTYICNVNHKPSNTKVDKKVEPKSCDKTHLSSSETQANSTTDALNVLLIIVDDLRPSLGCYGDKLVRSPNIDQLASHSLLFQNAFAQQAVCAPSRVSFLTGRRPDTTRLYDFNSYWRVHAGNFSTIPQYFKENGYVTMSVGKVFHPGISSNHTDDSPYSWSFPPYHPSSEKYENTKTCRGPDGELHANLLCPVDVLDVPEGTLPDKQSTEQAIQLLEKMKTSASPFFLAVGYHKPHIPFRYPKEFQKLYPLENITLAPDPEVPDGLPPVAYNPWMDIRQREDVQALNISVPYGPIPVDFQRKIRQSYFASVSYLDTQVGRLLSALDDLQLANSTIIAFTSDHGWALGEHGEWAKYSNFDVATHVPLIFYVPGRTASLPEAGEKLFPYLDPFDSASQLMEPGRQSMDLVELVSLFPTLAGLAGLQVPPRCPVPSFHVELCREGKNLLKHFRFRDLEEDPYLPGNPRELIAYSQYPRPSDIPQWNSDKPSLKDIKIMGYSIRTIDYRYTVWVGFNPDEFLANFSDIHAGELYFVDSDPLQDHNMYNDSQGGDLFQLLMP
notes: Variant of the Fab-iduronate-2-sulfatase fusion

binding: binds
B2: HIR-FAB-IDS (SEQ ID NO: 9 and SEQ ID NO: 13) (Fab)
light: EIVLTQSPDFQSVTPKEKVTITCRASQDIGGNLYWYQQKPDQSPKLLIKATSSLDSGVPSRFSGSGSGTDFTLTINSLEAEDAAAYYCLQYSSSPWTFGPGTKVDIKRTVAAPSVFIFPPSDEQLKSGTASVVCLLNNFYPREAKVQWKVDNALQSGNSQESVTEQDSKDSTYSLSSTLTLSKADYEKHKVYACEVTHQGLSSPVTKSFNRGEC
heavy: QVQLVESGGGVVQPGRSLRLSCAASGFTFSNYDIHWVRQAPGKGLEWVAWIYPGDGSTKYNEKFKGRFTISRDNSKNTLYLQMNGLRAEDTAVYYCAREWAYWGQGTLVTVSSASTKGPSVFPLAPSSKSTSGGTAALGCLVKDYFPEPVTVSWNSGALTSGVHTFPAVLQSSGLYSLSSVVTVPSSSLGTQTYICNVNHKPSNTKVDKRVEPKSCDKTHLSSSETQANSTTDALNVLLIIVDDLRPSLGCYGDKLVRSPNIDQLASHSLLFQNAFAQQAVCAPSRVSFLTGRRPDTTRLYDFNSYWRVHAGNFSTIPQYFKENGYVTMSVGKVFHPGISSNHTDDSPYSWSFPPYHPSSEKYENTKTCRGPDGELHANLLCPVDVLDVPEGTLPDKQSTEQAIQLLEKMKTSASPFFLAVGYHKPHIPFRYPKEFQKLYPLENITLAPDPEVPDGLPPVAYNPWMDIRQREDVQALNISVPYGPIPVDFQRKIRQSYFASVSYLDTQVGRLLSALDDLQLANSTIIAFTSDHGWALGEHGEWAKYSNFDVATHVPLIFYVPGRTASLPEAGEKLFPYLDPFDSASQLMEPGRQSMDLVELVSLFPTLAGLAGLQVPPRCPVPSFHVELCREGKNLLKHFRFRDLEEDPYLPGNPRELIAYSQYPRPSDIPQWNSDKPSLKDIKIMGYSIRTIDYRYTVWVGFNPDEFLANFSDIHAGELYFVDSDPLQDHNMYNDSQGGDLFQLLMP
notes: as for B1
